The source of these data is PubChem BioAssay AID638 (SRMLSC, 2007).

Among all 1,300 compounds or so, about 65 (5%) were called active.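 How the source made its calls: active means growth inhibition reaching a set limit at one or more tested doses; inactive means the rest.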 The list shows a part of the results. Entries with a potency or affinity are not part of this list.

A short description of this test: wild-type E. coli BW25113 antibacterial activity – OD615, dose response (AID 638). The following applies: at 100 µM (top of the series) unless noted. The essentials: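 Assay system: E. coli BW25113 wild type; buffer or medium: Kanamycin-supplemented LB broth; signal: optical density (absorbance) at 615 nm; controls: chloramphenicol 30 µM control; doses: compound concentration series; times: bacterial exposure to compound 20 h at 37 °C; evaluation: IC50 from 4-parameter logistic, bounds fixed 0–100%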
In the case of `COc1ccccc1OCCSc1nnnn1-c1ccc(C)cc1`, the growth inhibition was inactive: 7.78%. As to `Cc1ccc(-c2csc3ncnc(Sc4nnc(CN5CCCCCC5=O)o4)c23)cc1`, the growth inhibition is inactive: 5.4%. In the case of `c1ccc(CCN2CCN(c3ncnc4c3cnn4-c3ccccc3)CC2)cc1`, the growth inhibition was inactive: 2.47%.

As for `N#CCSc1nc2c(c(C3CC=CCC3)c1C#N)CCC2` (configuration not stated), the growth inhibition was inactive: -1.32%.

In the case of `O=c1c2c(nc3n1CCCCC3)-c1ccccc1CC21CCCC1`, the growth inhibition is inactive: 0.11%. For `CCCOc1ccc(C2C(C(=O)c3ccc(C)o3)=C(O)C(=O)N2Cc2cccnc2)cc1` (configuration not stated) the value was inactive: 6.33%. For `CCn1cc(C(=O)NC2CCCCC2C)c(=O)c2ccc(C)nc21` (configuration not stated) the value was inactive: 4.15% [at 50 µM]; for `Cc1cccc(S(=O)(=O)C(C#N)c2nc3ccccc3nc2N2CC(C)OC(C)C2)c1` (configuration not stated), inactive: -20.4%; for `COC(=O)c1sccc1NC(=O)c1ccc(Cl)s1`, inactive: 1.64%. For `CCNc1nc(SCc2ccccc2)nc(N2CCOCC2)n1` the value was inactive: 6.48%. Take `Cc1ccc(OCc2nc(C#N)c(NCc3ccc4c(c3)OCO4)o2)cc1`: the growth inhibition is inactive: -12.3%. For `Cc1ccc(N(CC(=O)Nc2cccc(C)c2)S(=O)(=O)c2cccc3nonc23)cc1` the value was inactive: -20.5%. The value for `Cc1ccc(N(CC(=O)Nc2ccc3c(c2)OCCO3)S(=O)(=O)c2c(C)noc2C)cc1` was inactive: -3.69%; that for `Cc1ccc(C2CC(c3cccc(Br)c3)Nc3nnnn32)cc1` (configuration not stated) was inactive: -8.96%. The value for `CCN(CCCNC(=O)CCc1nc(-c2ccc(C)cc2)no1)c1cccc(C)c1` was inactive: -5.93%; that for `COc1ccc(-c2[nH]ncc2Oc2ccccc2OC)c(O)c1` was inactive: 10.7%; that for `Cc1csc(NC(=O)C2CCCN(S(=O)(=O)c3ccc(Br)s3)C2)n1` (configuration not stated) was inactive: -1.72%.

With `O=C(c1ccco1)N1CCN(c2c(-c3ccccc3)c3cc(Cl)ccc3[nH]c2=O)CC1`, the growth inhibition was inactive: 7.38%.

With `COc1ccc(S(=O)(=O)n2cnc3cc(C)c(C)cc32)cc1C`, the growth inhibition is inactive: -10.4%. The value for `Cn1c(=O)n(CCCOc2ccc(Cl)cc2)c2ccccc21` was inactive: 2.36%; that for `CCCCCCC(=O)N1CCC(c2nc3c(nnn3Cc3ccccc3Cl)c(=O)[nH]2)CC1` was inactive: -4.51%. For `c1ccc(CSc2nnc(-c3ccco3)n2Cc2ccccc2)cc1` the value was inactive: -0.52%; for `O=C(Nc1ccc2c(c1)CCC2)C1COc2ccccc2O1` (configuration not stated), inactive: 7.62%. For `CCOc1ccc(N(CC(=O)Nc2ccc(C)c(C)c2)S(=O)(=O)c2c(C)noc2C)cc1`, the growth inhibition was inactive: -3.91%. Consider `Cn1cc(SCC(=O)Nc2nc3ccccc3s2)c2ccccc21`, for which the growth inhibition was inactive: -9.89%. For `Cc1nc2c(C(=O)NCc3ccc4c(c3)OCO4)c[nH]n2c(=O)c1Cc1ccccc1F` the value was inactive: 0.77%; for `Cc1cc(N2CCN(c3ccccc3)CC2)nc(-c2ccccc2)n1`, inactive: -2.76%; for `CCOC(=O)c1cnc(-n2nc(C)cc2C)nc1NC(C)c1ccccc1` (configuration not stated), inactive: 6.59%. For `COc1cccc(C2/C(=C(/O)c3ccc(C)cc3)C(=O)C(=O)N2Cc2ccco2)c1` (configuration not stated) the value was inactive: -3.65%. For `CCCn1nnc(NC(=O)COc2ccc(C3CCCCC3)cc2)n1` the value was inactive: 3.74%; for `COc1ccc(C(=O)C(CN2CCOCC2)c2ccccc2)cc1F` (configuration not stated), inactive: 11%. Take `O=c1[nH]c2ccc(S(=O)(=O)N3CCN(c4ccccc4F)CC3)cc2s1`: the growth inhibition was inactive: -14.9%. As to `O=C(Nc1scc(-c2cccs2)c1C(=O)O)c1cccs1`, the growth inhibition is inactive: -14.8%. For `O=C(NCc1ccco1)c1cc2sccc2n1Cc1ccccc1`, the growth inhibition was inactive: -6.37%. In the case of `c1ccc(CCc2ccccc2-c2nc(-c3cccnc3)no2)cc1`, the growth inhibition is inactive: 2.9%. The value for `Cc1c(C(=O)N2CCc3ccccc3C2)sc2nc(-c3ccccc3)cn12` was inactive: -29.2%.

For `COc1ccc(-c2cnc(N)n2CC2CCCO2)cc1` (configuration not stated), the growth inhibition was inactive: -2.76%. `Fc1cccc(-c2cc3nc4c(c(N5CCOCC5)n3n2)CCCC4)c1`: the growth inhibition is inactive: 0.39%. The value for `CCCOc1ccc(C(=O)N2CCN(c3ccc(NC(=O)CC)cc3Cl)CC2)cc1` was inactive: 14.6%; that for `O=C(Nc1nnc(-c2ccccc2)o1)c1nc2ccccc2s1` was inactive: -11.8%. The value for `CC(C)n1c(C(=O)OCC(=O)NCc2ccc3c(c2)OCO3)cc2occc21` was inactive: -0.66%; that for `Cc1cc(NC(=O)Cn2nnc3sc4c(c3c2=O)CCC(C(C)(C)C)C4)no1` (configuration not stated) was inactive: 6.34%; that for `Cc1nn(-c2ccccc2)c(C)c1C(=O)Nc1nnc(-c2ccco2)o1` was inactive: 9.7%. For `CCCc1nc2ccccc2c(=O)n1NC(=O)c1c(O)c2ccccc2[nH]c1=O` the value was inactive: -2.14%.

Regarding `C=CCc1c(C)nc(SCc2nc3ccccc3c(=O)[nH]2)[nH]c1=O`, the growth inhibition was inactive: -15.1%. For `O=S(=O)(c1ccccc1)N1CCN(Cc2ccccc2C(F)(F)F)CC1` the value was inactive: 6.92%; for `Cc1ccc(C(C)C)c(Oc2nnnn2-c2ccccc2)c1`, inactive: -0.52%. The value for `C=C(C)COc1ccc(-c2ncncc2Oc2ccc(OC)cc2)c(O)c1` was inactive: 11.3%; that for `COC(=O)c1ccc(C2c3c(n[nH]c3C)C(=O)N2c2ccc(C)cc2)cc1` (configuration not stated) was inactive: 11.1%.

As to `CCCCCn1c(-c2ccco2)nc2nc3ccccc3nc21`, the growth inhibition is inactive: 11.6%. For `O=C(Nc1sc2c(c1C(=O)O)CCC2)c1cccs1` the value was inactive: -9.69%; for `Cc1ccc2c(c1)c(C)c(C)n2CC(O)Cn1nc(C)c(Br)c1C` (configuration not stated), inactive: -3.25%; for `CCOC(=O)c1cc2oc(C)cc2n1CC(=O)OC1CCCCC1`, inactive: 9.56%.

On to `Oc1ccc(Br)cc1-c1nc2cnccn2c1NC1CCCC1`, for which the growth inhibition is inactive: 16.3%. The value for `c1ccc2c(c1)oc1c(N3CCN(Cc4ccc5c(c4)OCO5)CC3)ncnc12` was inactive: -2.91%; that for `CCOC(=O)CCSc1nc2c(c(C(F)(F)F)c1C#N)CCC2` was inactive: 4.77%. For `CCOC(=O)N1CCN(c2nc(-c3ccc(F)cc3)cs2)CC1` the value was inactive: 6.6%; for `CCOC(=O)c1cnc(-n2cc(C)cn2)nc1Nc1ccccc1OCC`, inactive: 4.31%. On to `C=C(C)COc1ccc(-c2n[nH]c(C)c2-c2ccccc2)c(O)c1`, for which the growth inhibition was active: 20.5%. As to `COc1ccc(-c2noc(C)c2-c2ccc3ccccc3n2)c(O)c1`, the growth inhibition is inactive: 0.79%. For `O=C(Nc1nc(-c2ccccc2)cs1)c1cccs1` the value was inactive: 1.49%; for `COC(=O)c1[nH]c2ccccc2c1NC(=O)CN1CCN(c2cccc(OC)c2)C(C)C1` (configuration not stated), inactive: -2.45%; for `Cc1cc2c(cc(C(=O)OCC(=O)NCc3cccs3)n2C(C)C)o1`, inactive: 3.77%. The value for `CCOC(=O)c1ccc(NC(=O)CSc2nc(SC)ns2)cc1` was inactive: 18.4%; that for `CC(C)c1ccc(OCc2nc(-c3ccccn3)no2)c(Br)c1` was inactive: 8.32%. `COc1ccc(NC(=O)N2CCCC(c3nc(-c4ccc(C(C)C)cc4)no3)C2)cc1` (configuration not stated): the growth inhibition was inactive: -13.1%. As for `O=S(=O)(Nc1nc2ccccc2nc1N1CCN(c2ccccn2)CC1)c1ccc(Cl)cc1`, the growth inhibition was inactive: -0.89%.

As for `COc1cc(C2C(C(=O)c3ccc(C)o3)=C(O)C(=O)N2c2cc(C)on2)cc(Br)c1O` (configuration not stated), the growth inhibition was inactive: -1.59%. For `CN(C)c1nc(SCCOC(=O)Nc2ccccc2)nc(N(C)C)n1` the value was inactive: -4.74%. On to `CCCc1ccc(Oc2cn[nH]c2-c2ccc(O)cc2O)cc1`, for which the growth inhibition is inactive: 8.26%. Consider `CC(=O)Nc1cccc(NC(=O)c2oc3ccccc3c2C)c1`, for which the growth inhibition is inactive: 3.29%.

`c1ccc(Cn2nnc3c(N4CCN(Cc5ccc6c(c5)OCO6)CC4)ncnc32)cc1`: the growth inhibition is inactive: -8.7%.

In the case of `O=C(Nc1ccc(S(=O)(=O)N2CCCc3ccccc32)cc1)C1CCCO1` (configuration not stated), the growth inhibition was inactive: -2.99%. As for `COc1ccc2nc(N3CCC(C)CC3)c(C#N)cc2c1`, the growth inhibition was inactive: 9.35%. `COc1ccccc1N1CCN(C(c2ccc(Cl)cc2)c2nnnn2C(C)(C)C)CC1` (configuration not stated): the growth inhibition is inactive: -6.6%.

As for `Clc1cccc(-c2nc3nc4ccccc4nc3n2Cc2ccco2)c1`, the growth inhibition is inactive: -12.9%.

In the case of `COc1ccc(C(C(O)C(=O)c2c[nH]c3ccccc23)N2CCN(c3ccc(OC)cc3)CC2)cc1` (configuration not stated), the growth inhibition is inactive: 4.53%. Regarding `CC(C)N(Cc1nc(-c2ccc(Cl)cc2)no1)C(=O)c1cccs1`, the growth inhibition is inactive: 3.57%. For `Nc1nc(CN2CCN(c3cccc(Cl)c3)CC2)nc(N2CCCc3ccccc32)n1` the value was inactive: 4.24%; for `CCOC(=O)Cc1c(C)nc2c(-c3cccc(Br)c3)c[nH]n2c1=O`, inactive: 7.94%. For `CCOC(=O)c1sc2c(c1C)C(c1cccs1)C1=C(CCCC1=O)N2` (configuration not stated) the value was inactive: 7.91%.

Regarding `Cc1cc(Cl)ccc1OCC(=O)Nc1ccccc1N1CCOCC1`, the growth inhibition is inactive: 2.58%. The value for `COc1cccc(-c2cc(C(=O)N3CCc4ccccc4C3)no2)c1` was inactive: -9.48%; that for `CC1=C(C(=O)OC2CCCCCCC2)C(c2cccc(O)c2)NC(=O)N1` (configuration not stated) was inactive: 3.95%; that for `COc1ccc(OC)c(C(=O)COC(=O)c2cc(C)oc2C)c1` was inactive: -6.45%. The value for `CCC(C(=O)N1CCN(c2cccc(Cl)c2)CC1)c1ccccc1` (configuration not stated) was inactive: 10.5%; that for `Cc1ccc(NC(=O)c2ccccc2O)cc1` was inactive: 4.55% [at 50 µM]; that for `COc1ccc(NS(=O)(=O)c2cc(C)ccc2NC(=O)c2cc(C)oc2C)cc1` was inactive: 11.8%. The value for `COc1ccccc1-c1nnc(NC(=O)c2ccc(S(=O)(=O)N(C)C)cc2)o1` was inactive: 1.56%; that for `O=C(NCCc1ccccc1)c1nc2c(nnn2Cc2ccccc2Cl)c(=O)[nH]1` was inactive: -1.17%. Turning to `CCC(C)(C)n1nnnc1C(c1cc2ccc(C)cc2[nH]c1=O)N(Cc1cccnc1)Cc1ccco1` (configuration not stated), the growth inhibition was inactive: -19.6%. For `N=c1n(CCN2CCOCC2)c2ccccc2n1CC(=O)c1ccc(Cl)c(Cl)c1`, the growth inhibition was inactive: -3.82%.
